Test results reported in publication PMC13539228.
Results are given in words; binding and its absence hold for the method and conditions named. In cells and extracts the contact can be indirect. A yes stands for co-enrichment or nearness to the bait. Other partners may have been found.

B1: PA0937, endogenous (protein, UniProt Q9I521 1-179)
chain: MSMSLRDQLLKAGLVNEKQAKQATKQKQKQQRLEHKNQVDKDDSQRQAAEQAKAEKLARDQELNRQQQEKAEKKAKAAQIKQLIEGTRLPKLESDDYYNFVDAKKVKRIAVNDLIRDKLSRGSLAIVSYDGRYEIVPRDAAVKIQERDPRRVVLLNVQSQEPDEDDPYKDYVVPDDLMW
B2: PA3309, endogenous (protein, UniProt Q9HYT5 1-151)
chain: MYDRILVAVDGSPVSDRALEEAIKLAGLSGGKLRVITIVDSPLRHLPDYAVYYNPEPLREAALKAADDVLAKAREKVEASNVEGATFDRVCQERASEEIAERIELEAQASDADVVVMGTHGRRGMRRLMLGSVAEGLIRVASRPVLLVRDK
B3: PA1899, endogenous (protein, UniProt Q9I2J9 1-162)
chain: MREYQRLKGFTDNLELRRRNRATVEHYMRMKGAERLQRHSLFVEDGCAGNWTTESGEPLVFRGHESLRRLAEWLERCFPDWEWHNVRIFETEDPNHFWVECDGRGKALVPGYPQGYCENHYIHSFELENGRIKRNREFMNPMQKLRALGIAVPQIKRDGIPT
B4: PA3196, endogenous (protein, UniProt Q9HZ44 1-176)
chain: MKETLNELITLISTGCMGAEEIRRIADEAAQAYADPAGFLAANPDINYDDSFPIPLGEWVVVGSLPDIVLFQADTYAELFARIVASFGKDVAFNIKPKQLLKTEPLVALNRIQVQLSSMYPEKGGYVLVDFSEPLDDELQAVLVYTQDLPRVMALCVEAGIYAAPAYESLRDAEAE

Target: PipA-GFP (P. aeruginosa)
Assay: affinity purification with mass spectrometry; CoIP-seq: PipA-GFP expressed in bacteria, PipA-partner protein complexes enriched using GFP-affinity beads, candidates identified by mass spectrometry

| Binder | binding |
| --- | --- |
| B1 | binds |
| B2 | binds |
| B3 | binds |
| B4 | binds |
